## Assay results

From PubChem BioAssay record AID1159506 (NCATS, 2015).

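Genome-wide siRNA knockdown in TC32 Ewing sarcoma cells, comparing luciferase light from an NR0B1-promoter reporter with a CMV-promoter reporter 48 hours after transfection.
Each siRNA was applied at 20 nM.
A z-score of the log NR0B1-over-CMV signal, less the median of siRNAs with the same seed; more negative means a stronger specific loss of the NR0B1 reporter.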

The strongest results of the screen are mostly left out here.
Sequences are the guide (antisense) strand, without overhang.

Sequence | gene | seed-corrected z-score
UUAAAGACUUUUAUAGUGG | PLXNC1 | -0.2292
UUCUUGGUUAGCCAUGUCA | HMGN1P31 | 1.594
UACCAGACAGUAGGUGUUG | EIF6 | -0.05136
UUCCGUUCCUCUAUUUGUC | C5orf64 | 0.8877
UAUUUGACAUCACACGAUC | FLNB | -0.6558
UUUCCGUCCACUGUACCAG | ATP9A | -0.01486
AAAAGGGCAACAAAUUUUC | OR2Y1 | -0.7081
UUACUCACUAGAGAAGCAG | UROS | 0.1415
UCAGAAAUAUGUCCCGUGG | NPHP4 | 0.1482
UUCUGUGAAUGAUCCACCC | NAA50 | 0.6389
UUAGGCAUCUCUGCGUACG | ITPA | -0.7014
UUGUAUGGAACGUACUUCC | GALNTL6 | 0.2563
UUGUCAAUGACAUUGGGUC | OR4A15 | -0.009496
UUGGUUGUUAUGACCAGAC | KCNAB1 | 0.7105
UUGCGUAAAACAUAGUCUG | EFCAB5 | -0.01934
AUCAUUUAAGGUUGGAUGC | FMO5 | 0.7707
AACCAUAUUACCCUUUUCC | IL36B | 0.3904
AAUAGUUCCCAGAAAAGGC | CYP3A43 | -0.1564
UGGGUGAUGAUAACAUUGC | DHX30 | -0.2646
UUAUGAUCUCGAAGUUUCC | KDM7A | -0.3369
UUGGCUUGCAGUUCAACCU | KRT6C | 0.6907
UAUGUGGAGGUGUAGACGC | CKAP4 | 0.2459
AUAUUGAUUCUUUCACUCG | OXSR1 | 0.7914
AAACCAUUUGGACUGGGCC | GAS7 | -0.4656
UUCUUGUCGAUGUCUUUGA | HTRA3 | -0.8222
UUCUUGUACAGUCUCAUCU | PITHD1 | 1.461
UUAUAGCUAAUUGAAUUCC | SLC35F1 | -0.1544
ACAUGCUUCAAAGCUCUGG | LOC646513 | -0.7349
ACAGUACUUAUAUGGAGGC | WFDC9 | 0.09563
AUCGUAGAAAUAGUUGGUC | ATP5SL | 0.1724
UACUUGAUGAACACUAGGG | PSEN2 | -0.1431
AAGUUUAUUAGGCGAUUUG | KRT33B | -0.4138
UACUUUUCAACGGACUCUC | BCLAF1 | -1.148
AUGGUGAUGAAGGUCCGGG | MAP2K3 | 0.02052
ACAUUAUUCCCAGAAAUCC | TRIM35 | -0.651
UUUCGAUAGAAAAUCCUGC | ITIH2 | -0.1088
AUUCGAAGAAACGCAGUUG | KIF16B | 0.1592
AAACAGAAAAUAGAGCCUC | LINC00951 | -0.8363
UUCACAACGAAACUGCACC | KISS1R | -0.0523
UCAUUAAGCAAUCAUCAUC | PFDN4 | -0.82

Some entries from above, unchanged:

With UUCCGUUCCUCUAUUUGUC against C5orf64 the assay gave seed-corrected z-score 0.8877.
With AUAUUGAUUCUUUCACUCG against OXSR1 the assay gave seed-corrected z-score 0.7914.
With UAUGUGGAGGUGUAGACGC against CKAP4 the assay gave seed-corrected z-score 0.2459.
With UUUCCGUCCACUGUACCAG against ATP9A the assay gave seed-corrected z-score -0.01486.